The assay deals with T1, Ubiquitin-specific protease 3 (USP3), endogenous (human (endogenous in PC3)) (UniProt Q9Y6I4).
T1 sequence: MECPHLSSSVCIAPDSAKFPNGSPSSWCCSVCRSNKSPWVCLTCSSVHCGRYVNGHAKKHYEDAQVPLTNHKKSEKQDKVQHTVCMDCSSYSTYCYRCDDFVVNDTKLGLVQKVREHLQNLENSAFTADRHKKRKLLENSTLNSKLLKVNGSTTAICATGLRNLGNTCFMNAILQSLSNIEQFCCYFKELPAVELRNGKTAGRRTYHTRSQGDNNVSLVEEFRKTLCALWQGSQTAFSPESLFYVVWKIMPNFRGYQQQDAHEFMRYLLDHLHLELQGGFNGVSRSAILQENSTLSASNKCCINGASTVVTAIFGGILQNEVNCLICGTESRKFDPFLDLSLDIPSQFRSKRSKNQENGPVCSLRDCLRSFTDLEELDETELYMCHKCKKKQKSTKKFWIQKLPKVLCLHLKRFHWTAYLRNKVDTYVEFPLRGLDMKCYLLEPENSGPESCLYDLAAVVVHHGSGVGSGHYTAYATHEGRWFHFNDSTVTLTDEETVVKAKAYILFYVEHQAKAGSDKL
Nature of the assay: affinity purification with mass spectrometry; PC3 cells lysed, immunoprecipitation with anti-USP3 antibody and protein A/G agarose beads, gel stained with silver, mass spectrometry.

The chains behind the UniProt entries cited, without tags or fusion partners.
UniProt Q6S8J3: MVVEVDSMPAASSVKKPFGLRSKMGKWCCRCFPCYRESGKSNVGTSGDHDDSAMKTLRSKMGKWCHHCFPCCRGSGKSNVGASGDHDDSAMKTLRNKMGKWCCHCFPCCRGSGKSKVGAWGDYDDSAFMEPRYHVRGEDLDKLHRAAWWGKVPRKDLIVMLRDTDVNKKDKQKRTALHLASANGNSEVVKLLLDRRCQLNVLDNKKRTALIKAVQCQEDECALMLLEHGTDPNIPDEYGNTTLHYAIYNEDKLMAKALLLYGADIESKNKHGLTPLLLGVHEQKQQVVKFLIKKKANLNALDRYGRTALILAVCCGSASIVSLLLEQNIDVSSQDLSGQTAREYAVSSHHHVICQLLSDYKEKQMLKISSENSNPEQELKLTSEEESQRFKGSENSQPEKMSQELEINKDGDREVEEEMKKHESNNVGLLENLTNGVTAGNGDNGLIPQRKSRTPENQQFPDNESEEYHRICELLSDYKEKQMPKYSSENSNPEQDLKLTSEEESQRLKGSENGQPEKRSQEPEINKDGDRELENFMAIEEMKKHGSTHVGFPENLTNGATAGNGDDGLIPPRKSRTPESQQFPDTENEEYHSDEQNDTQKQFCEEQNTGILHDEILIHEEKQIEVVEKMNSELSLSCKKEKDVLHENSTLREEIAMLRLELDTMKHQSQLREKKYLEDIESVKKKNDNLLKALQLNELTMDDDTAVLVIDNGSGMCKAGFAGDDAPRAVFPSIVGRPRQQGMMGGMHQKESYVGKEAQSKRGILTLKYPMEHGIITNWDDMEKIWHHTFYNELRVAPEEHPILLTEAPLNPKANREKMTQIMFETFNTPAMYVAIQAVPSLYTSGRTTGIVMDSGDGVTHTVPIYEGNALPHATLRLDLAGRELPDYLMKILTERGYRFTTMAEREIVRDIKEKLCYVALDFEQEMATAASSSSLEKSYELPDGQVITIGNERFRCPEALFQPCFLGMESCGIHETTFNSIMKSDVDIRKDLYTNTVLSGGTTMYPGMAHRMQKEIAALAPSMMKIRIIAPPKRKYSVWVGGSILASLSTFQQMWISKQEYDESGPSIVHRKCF
UniProt O60264: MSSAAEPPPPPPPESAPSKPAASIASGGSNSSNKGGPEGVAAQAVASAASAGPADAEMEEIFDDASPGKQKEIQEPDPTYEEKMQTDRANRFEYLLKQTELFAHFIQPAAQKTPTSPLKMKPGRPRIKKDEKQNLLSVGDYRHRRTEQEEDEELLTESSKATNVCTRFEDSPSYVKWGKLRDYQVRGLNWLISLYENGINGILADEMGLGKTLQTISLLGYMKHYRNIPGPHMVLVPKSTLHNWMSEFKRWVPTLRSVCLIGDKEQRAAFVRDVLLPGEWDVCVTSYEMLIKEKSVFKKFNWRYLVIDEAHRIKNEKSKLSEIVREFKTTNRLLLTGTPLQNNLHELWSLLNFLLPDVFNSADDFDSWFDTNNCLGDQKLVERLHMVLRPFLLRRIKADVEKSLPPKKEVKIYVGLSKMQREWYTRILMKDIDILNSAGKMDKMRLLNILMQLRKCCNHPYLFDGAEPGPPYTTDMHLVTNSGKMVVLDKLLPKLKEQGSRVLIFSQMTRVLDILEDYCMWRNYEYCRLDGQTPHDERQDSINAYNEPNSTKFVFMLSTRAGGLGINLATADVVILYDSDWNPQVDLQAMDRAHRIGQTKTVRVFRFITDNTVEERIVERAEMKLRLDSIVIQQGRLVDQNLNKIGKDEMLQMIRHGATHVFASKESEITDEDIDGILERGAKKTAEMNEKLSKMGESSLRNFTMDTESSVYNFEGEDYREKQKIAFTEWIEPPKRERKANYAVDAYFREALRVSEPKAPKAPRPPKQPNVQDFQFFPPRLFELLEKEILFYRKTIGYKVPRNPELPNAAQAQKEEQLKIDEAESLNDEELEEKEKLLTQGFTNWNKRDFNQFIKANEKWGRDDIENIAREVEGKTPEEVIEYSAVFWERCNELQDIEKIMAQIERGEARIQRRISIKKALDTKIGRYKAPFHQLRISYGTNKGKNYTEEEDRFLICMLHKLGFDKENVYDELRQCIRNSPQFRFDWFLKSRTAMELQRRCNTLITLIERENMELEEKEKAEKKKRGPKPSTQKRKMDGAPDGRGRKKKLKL

Results are given in words; binding and its absence hold for the method and conditions named. In cells and extracts the contact can be indirect. These calls come from enrichment with a bait or labelling near it, and not all partners need be listed.

Regarding POTEE (from UniProt Q6S8J3 1-1075), the binding result was “binds”. The entry for “SMARCA5, SWI/SNF-related matrix-associated actin-dependent regulator of chromatin subfamily A member 5, endogenous (from UniProt O60264 1-1052) (enzyme)” is “binds”; for TTN (from UniProt Q8WZ42 1-34350) it is “binds”.

B1: EBNA1BP2 (protein, UniProt Q99848 1-306)
chain: MDTPPLSDSESESDESLVTDRELQDAFSRGLLKPGLNVVLEGPKKAVNDVNGLKQCLAEFKRDLEWVERLDVTLGPVPEIGGSEAPAPQNKDQKAVDPEDDFQREMSFYRQAQAAVLAVLPRLHQLKVPTKRPTDYFAEMAKSDLQMQKIRQKLQTKQAAMERSEKAKQLRALRKYGKKVQTEVLQKRQQEKAHMMNAIKKYQKGFSDKLDFLEGDQKPLAQRKKAGAKGQQMRKGPSAKRRYKNQKFGFGGKKKGSKWNTRESYDDVSSFRAKTAHGRGLKRPGKKGSNKRPGKRTREKMKNRTH
For the molecule B1, the binding entry is “binds”.

Values taken from article PMC11538284.
